The target of assay [1] is Homo sapiens TRAF6 RZ3 (RING domain and first three zinc fingers, residues 50-211) (Homo sapiens) (UniProt Q9Y4K3). The assay can be described thus: SEC-MALS; oligomeric status of TRAF6; MALS (Dawn 8+) coupled to Superdex 200 10/300 GL; dimer to monomers; both purified. (In general: In gel filtration, larger molecules generally elute earlier.)
The target is the same in assay [2]. The experiment in a line: SEC; each TRAF6 protein (wild type or mutant) at 40 µM on Superdex 200 Increase 10/300; dimer to monomers; both purified.

Our source for the binding values is article PMC5702613.

Results are given in words; binding and its absence hold for the method and conditions named. Some results given as binding are weak or reduced against the parent protein; the word gives no strength.

B1: Homo sapiens TRAF6 RZ3 (RING domain and first three zinc fingers, residues 50-211) (domain or fragment, UniProt Q9Y4K3 50-211)
chain: MEEIQGYDVEFDPPLESKYECPICLMALREAVQTPCGHRFCKACIIKSIRDAGHKCPVDNEILLENQLFPDNFAKREILSLMVKCPNEGCLHKMELRHLEDHQAHCEFALMDCPQCQRPFQKFHINIHILKDCPRRQVSCDNCAASMAFEDKEIHDQNCPLA
Consider B1, for which the binding result in assay [1] and in assay [2] was “binds weakly” throughout.
